No constants are given. Whether binding was seen depends on the method and setting. Binding seen in cells or lysates may run through a third protein. Some results given as binding are weak or reduced against the parent protein; the word gives no strength.
Target: eukaryotic translation initiation factor 4GI (eIF4GI), endogenous, from murine CD8+ T cells (mouse) (UniProt Q6NZJ6)
Test: co-immunoprecipitation from lysates of activated murine CD8+ T cells, western blot; interaction reduced after brief mTOR inhibition (Torin)

Protein sequences, listed by entry. Tags and fused reporters are not part of them. Residues count along the entry.
UniProt Q6NZJ6: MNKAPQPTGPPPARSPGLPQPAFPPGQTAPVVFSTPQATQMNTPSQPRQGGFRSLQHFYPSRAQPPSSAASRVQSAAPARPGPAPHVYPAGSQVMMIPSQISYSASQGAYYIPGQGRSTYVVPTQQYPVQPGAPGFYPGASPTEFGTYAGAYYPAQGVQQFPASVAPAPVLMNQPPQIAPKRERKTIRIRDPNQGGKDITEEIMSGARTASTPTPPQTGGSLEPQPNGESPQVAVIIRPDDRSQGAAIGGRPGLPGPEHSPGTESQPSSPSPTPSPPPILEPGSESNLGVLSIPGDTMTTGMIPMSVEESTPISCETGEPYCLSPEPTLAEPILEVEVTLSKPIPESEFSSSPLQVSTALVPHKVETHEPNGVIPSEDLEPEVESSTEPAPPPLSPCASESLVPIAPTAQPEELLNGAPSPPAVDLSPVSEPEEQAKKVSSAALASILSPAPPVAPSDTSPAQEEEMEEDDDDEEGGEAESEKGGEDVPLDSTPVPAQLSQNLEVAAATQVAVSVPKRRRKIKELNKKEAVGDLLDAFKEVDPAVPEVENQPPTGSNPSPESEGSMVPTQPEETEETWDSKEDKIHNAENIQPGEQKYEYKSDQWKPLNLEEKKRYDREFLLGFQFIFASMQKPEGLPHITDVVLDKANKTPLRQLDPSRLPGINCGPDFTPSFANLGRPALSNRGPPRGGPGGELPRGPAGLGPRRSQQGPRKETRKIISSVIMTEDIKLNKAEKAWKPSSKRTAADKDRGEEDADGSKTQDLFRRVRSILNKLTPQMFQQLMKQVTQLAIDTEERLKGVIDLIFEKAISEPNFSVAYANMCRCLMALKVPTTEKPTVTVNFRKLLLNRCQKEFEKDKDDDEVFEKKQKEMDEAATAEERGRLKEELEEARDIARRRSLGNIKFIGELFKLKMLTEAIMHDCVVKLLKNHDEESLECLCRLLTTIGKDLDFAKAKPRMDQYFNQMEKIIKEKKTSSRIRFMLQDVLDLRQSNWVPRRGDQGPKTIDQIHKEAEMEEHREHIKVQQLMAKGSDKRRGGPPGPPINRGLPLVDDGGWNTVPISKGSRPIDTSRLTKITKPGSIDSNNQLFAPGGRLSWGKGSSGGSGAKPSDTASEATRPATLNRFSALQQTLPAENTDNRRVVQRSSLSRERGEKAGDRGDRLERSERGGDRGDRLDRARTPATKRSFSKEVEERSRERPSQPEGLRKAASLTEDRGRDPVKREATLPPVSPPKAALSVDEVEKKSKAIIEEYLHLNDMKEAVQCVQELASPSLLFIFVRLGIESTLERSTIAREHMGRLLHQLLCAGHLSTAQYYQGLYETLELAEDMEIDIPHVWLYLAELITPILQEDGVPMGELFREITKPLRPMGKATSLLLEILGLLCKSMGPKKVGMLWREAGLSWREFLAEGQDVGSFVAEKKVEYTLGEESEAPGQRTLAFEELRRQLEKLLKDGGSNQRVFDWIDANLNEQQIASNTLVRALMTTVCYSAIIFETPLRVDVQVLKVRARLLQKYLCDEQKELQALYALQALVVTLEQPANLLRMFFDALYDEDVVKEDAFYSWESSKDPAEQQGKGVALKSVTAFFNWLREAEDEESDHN
UniProt P60843, residues 2-406: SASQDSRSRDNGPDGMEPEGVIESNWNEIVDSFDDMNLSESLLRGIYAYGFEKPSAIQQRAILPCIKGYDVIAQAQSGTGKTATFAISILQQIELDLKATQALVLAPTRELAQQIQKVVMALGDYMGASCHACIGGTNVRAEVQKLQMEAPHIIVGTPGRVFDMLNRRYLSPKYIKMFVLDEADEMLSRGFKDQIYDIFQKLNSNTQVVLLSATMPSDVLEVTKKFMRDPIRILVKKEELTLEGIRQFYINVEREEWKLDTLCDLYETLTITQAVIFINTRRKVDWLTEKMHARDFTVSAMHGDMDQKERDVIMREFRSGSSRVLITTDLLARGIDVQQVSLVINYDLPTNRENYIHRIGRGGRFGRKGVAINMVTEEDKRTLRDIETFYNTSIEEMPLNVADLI

binding: binds
Substance: eukaryotic initiation factor-4A (eIF4A), endogenous, from murine CD8+ T cells (from UniProt P60843 2-406) (enzyme)
